Measurements reported in PubChem BioAssay AID602196 (INSERM, 2012)
The deposit covers about 23,000 reagents; this is a random part of them. Of all reagents, 455 (2%) are marked active. 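Active includes both protection and sensitisation; some change values fall well beyond the stated -50 to +50 range.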 Reagents against one gene are numbered here. Further read-outs or replicates are left out here. Not given: the amount of reagent.

Screen: 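Modifiers of cisplatin sensitivity in A549 cells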
System: human A549 lung cancer cells
Reagent: siRNA pair against human genes
Timing: 48 h transfection before cisplatin; time from cisplatin to read-out not stated
Challenge: cisplatin at a dose killing half of control-siRNA cells; exact dose and duration not given
Measurement: 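Shift in cisplatin death relative to control siRNA, from -50 (all cells die) to +50 (no cells die); siRNAs harmful on their own scored 0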
Direction: two-siRNA summed score (-2 to +2): higher = both siRNAs protect from cisplatin killing; -2 means both sensitise
Hit rule: 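Each siRNA scores 0 if harmful alone by LDH or WST-1, otherwise +1 if it reduces and -1 if it increases cisplatin killing; a gene is active when both siRNAs agree (sum +2 or -2)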
Meaning of the calls: active = both siRNAs shift cisplatin killing the same way; inactive = no consistent shift, or siRNA harmful alone

For CLDN22, what was measured?
two-siRNA summed score (-2 to +2): 1; call: inactive

What is on record for TCP10L #1?
two-siRNA summed score (-2 to +2): 0; call: inactive

For TCP10L #2, what does the deposit list?
two-siRNA summed score (-2 to +2): 0; call: inactive

With TMEM68, what was measured?
two-siRNA summed score (-2 to +2): -1; call: inactive

With FOXH1, how do the results read?
two-siRNA summed score (-2 to +2): 1; call: inactive

What did the screen give for ISCA1?
two-siRNA summed score (-2 to +2): 0; call: inactive

How did the screen score LOC390735?
two-siRNA summed score (-2 to +2): 0; call: inactive

Which result is listed for SLC17A9?
two-siRNA summed score (-2 to +2): 0; call: inactive

Which result is listed for HERPUD1?
two-siRNA summed score (-2 to +2): 0; call: inactive

Which result is listed for PIGF?
two-siRNA summed score (-2 to +2): 0; call: inactive

How did the screen score CSTF3?
two-siRNA summed score (-2 to +2): -1; call: inactive

For LOC286177, what was measured?
two-siRNA summed score (-2 to +2): 0; call: inactive

For XKRX, what does the deposit list?
two-siRNA summed score (-2 to +2): 1; call: inactive

With OR2G3, what does the deposit list?
two-siRNA summed score (-2 to +2): 0; call: inactive

Not a retest: an excerpt of the list.
TCP10L #1 | two-siRNA summed score (-2 to +2): 0; call: inactive
TCP10L #2 | two-siRNA summed score (-2 to +2): 0; call: inactive

The listing continues:
For COL11A1, what was measured?
two-siRNA summed score (-2 to +2): 0; call: inactive

What is on record for H2AJ?
two-siRNA summed score (-2 to +2): 0; call: inactive

With PRSS55, what was measured?
two-siRNA summed score (-2 to +2): -1; call: inactive

What did the screen give for GALC?
two-siRNA summed score (-2 to +2): 0; call: inactive

What did the screen give for TBC1D10B?
two-siRNA summed score (-2 to +2): 0; call: inactive

How did the screen score NUCB2?
two-siRNA summed score (-2 to +2): 2; call: active

With PAOX, what was measured?
two-siRNA summed score (-2 to +2): 0; call: inactive
